Test results published in publication PMC8572226.
No constants are given. Whether binding was seen depends on the method and setting. In cells and extracts the contact can be indirect. Some results given as binding are weak or reduced against the parent protein; the word gives no strength.

Chains of the proteins cited; added tags and fusions are not shown. Residues count along the entry.
UniProt P63158: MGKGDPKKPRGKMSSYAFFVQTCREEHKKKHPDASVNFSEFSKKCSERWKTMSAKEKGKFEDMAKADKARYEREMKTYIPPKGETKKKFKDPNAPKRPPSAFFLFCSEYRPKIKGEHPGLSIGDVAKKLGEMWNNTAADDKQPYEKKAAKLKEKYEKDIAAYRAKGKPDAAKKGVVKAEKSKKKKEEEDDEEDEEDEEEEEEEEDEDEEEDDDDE
UniProt Q62151, residues 23-402: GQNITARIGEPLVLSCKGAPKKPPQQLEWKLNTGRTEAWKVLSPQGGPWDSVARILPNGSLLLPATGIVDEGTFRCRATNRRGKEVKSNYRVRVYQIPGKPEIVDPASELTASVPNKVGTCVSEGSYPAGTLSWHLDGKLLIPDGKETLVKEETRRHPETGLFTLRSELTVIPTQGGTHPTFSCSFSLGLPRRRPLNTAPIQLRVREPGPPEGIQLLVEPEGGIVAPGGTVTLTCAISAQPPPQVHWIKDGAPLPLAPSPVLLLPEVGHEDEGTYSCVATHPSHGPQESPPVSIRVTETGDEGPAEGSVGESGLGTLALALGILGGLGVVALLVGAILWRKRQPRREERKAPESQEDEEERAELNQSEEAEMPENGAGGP

Legend:
[1] = target: High mobility group box protein 1 (mouse (endogenous in Raw264.7)) (UniProt P63158); assay: co-IP; Raw264.7 cells with LPS and the RAGE inhibitor FPS-ZM1; endogenous proteins
[2] = target: High mobility group box protein 1 (mouse (endogenous in Raw264.7)) (UniProt P63158); assay: co-IP; Raw264.7 cells stimulated with 100 ng/ml LPS for 24 h; IP with anti-HMGB1, immunoblot; endogenous proteins

Substance: receptor for advanced glycation end-products (from UniProt Q62151 23-402)
- binding [1]: no binding (condition: with FPS-ZM1 (RAGE inhibitor))
- binding [2]: binds
